Consider one molecule from article PMC5723433, “Identification and characterization of a novel zebrafish (Danio rerio) pentraxin–carbonic anhydrase” (PeerJ, 2017).

By UniProt entry, the sequences of proteins in these tests, tags left out. Residues count along the entry.
UniProt E9QB97, 20-530: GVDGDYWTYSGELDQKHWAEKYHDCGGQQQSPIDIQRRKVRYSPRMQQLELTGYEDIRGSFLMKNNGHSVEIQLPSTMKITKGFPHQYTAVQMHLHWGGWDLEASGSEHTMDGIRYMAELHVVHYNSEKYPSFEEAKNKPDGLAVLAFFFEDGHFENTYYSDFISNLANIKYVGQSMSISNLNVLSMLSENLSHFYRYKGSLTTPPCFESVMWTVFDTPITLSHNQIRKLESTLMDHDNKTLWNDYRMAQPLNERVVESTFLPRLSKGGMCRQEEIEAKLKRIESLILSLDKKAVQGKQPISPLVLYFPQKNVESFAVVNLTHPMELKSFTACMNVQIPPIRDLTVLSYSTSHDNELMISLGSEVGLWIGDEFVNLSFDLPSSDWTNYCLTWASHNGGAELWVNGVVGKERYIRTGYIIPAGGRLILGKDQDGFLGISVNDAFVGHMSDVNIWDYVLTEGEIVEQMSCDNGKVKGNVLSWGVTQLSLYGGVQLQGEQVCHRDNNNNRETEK

This test addresses T1, CA VI–PTX (Pentraxin-CA VI) (Danio rerio, UniProt E9QB97).
T1 construct: gene ca6
The test can be described thus: biochemical.

Molecules are shown by their SMILES.

`CC(=O)Nc1nnc(S(N)(=O)=O)s1` [AAZ, 5-acetamido-1,3,4-thiadiazole-2-sulfonamide] had a Ki of 5 nM.
